Assay results taken from article PMC8501971.
Results are given in words; binding and its absence hold for the method and conditions named. Binding seen in cells or lysates may run through a third protein. Binding can be weak; no strength is given. Sequences can lack the tags named with a protein.

Biological target: glutathione S-transferase-EBNA-LP fusion protein (Epstein-Barr virus)
Assay: pull-down; HEK293T co-transfected with GST or GST-EBNA-LP and a Flag-tagged RBM protein, collected 48 h post-transfection; lysate in 20 mM Tris pH 8, 150 mM NaCl, 1 mM EDTA, 0.5% NP40; Glutathione-Sepharose 4B beads, 4 h at 4°C; RNAse A (10 mg/ml) in the fourth wash; blot with anti-Flag and …

B1: FLAG-tagged RBM6 (protein, UniProt P78332 1-1123)
chain: MWGDSRPANRTGPFRGSQEERFAPGWNRDYPPPPLKSHAQERHSGNFPGRDSLPFDFQGHSGPPFANVEEHSFSYGARDGPHGDYRGGEGPGHDFRGGDFSSSDFQSRDSSQLDFRGRDIHSGDFRDREGPPMDYRGGDGTSMDYRGREAPHMNYRDRDAHAVDFRGRDAPPSDFRGRGTYDLDFRGRDGSHADFRGRDLSDLDFRAREQSRSDFRNRDVSDLDFRDKDGTQVDFRGRGSGTTDLDFRDRDTPHSDFRGRHRSRTDQDFRGREMGSCMEFKDREMPPVDPNILDYIQPSTQDREHSGMNVNRREESTHDHTIERPAFGIQKGEFEHSETREGETQGVAFEHESPADFQNSQSPVQDQDKSQLSGREEQSSDAGLFKEEGGLDFLGRQDTDYRSMEYRDVDHRLPGSQMFGYGQSKSFPEGKTARDAQRDLQDQDYRTGPSEEKPSRLIRLSGVPEDATKEEILNAFRTPDGMPVKNLQLKEYNTGYDYGYVCVEFSLLEDAIGCMEANQGTLMIQDKEVTLEYVSSLDFWYCKRCKANIGGHRSSCSFCKNPREVTEAKQELITYPQPQKTSIPAPLEKQPNQPLRPADKEPEPRKREEGQESRLGHQKREAERYLPPSRREGPTFRRDRERESWSGETRQDGESKTIMLKRIYRSTPPEVIVEVLEPYVRLTTANVRIIKNRTGPMGHTYGFIDLDSHAEALRVVKILQNLDPPFSIDGKMVAVNLATGKRRNDSGDHSDHMHYYQGKKYFRDRRGGGRNSDWSSDTNRQGQQSSSDCYIYDSATGYYYDPLAGTYYDPNTQQEVYVPQDPGLPEEEEIKEKKPTSQGKSSSKKEMSKRDGKEKKDRGVTRFQENASEGKAPAEDVFKKPLPPTVKKEESPPPPKVVNPLIGLLGEYGGDSDYEEEEEEEQTPPPQPRTAQPQKREEQTKKENEEDKLTDWNKLACLLCRRQFPNKEVLIKHQQLSDLHKQNLEIHRKIKQSEQELAYLERREREGKFKGRGNDRREKLQSFDSPERKRIKYSRETDSDRKLVDKEDIDTSSKGGCVQQATGWRKGTGLGYGHPGLASSEEAEGRMRGPSVGASGRTSKRQSNETYRDAVRRVMFARYKELD
- binding: binds
